Assay results taken from publication PMC7862700.
This is a selection; strong and weak results do not stand in their true shares. For some assays here: At the low end of the ranking the order means little. This is one part of the list. For some assays here: The source does not settle which construct or isoform was used.

Sequences of proteins named here, by UniProt entry; tags and fusion partners are left off. A change or cut given only in a name is not applied to a line headed by its entry.
UniProt Q00613: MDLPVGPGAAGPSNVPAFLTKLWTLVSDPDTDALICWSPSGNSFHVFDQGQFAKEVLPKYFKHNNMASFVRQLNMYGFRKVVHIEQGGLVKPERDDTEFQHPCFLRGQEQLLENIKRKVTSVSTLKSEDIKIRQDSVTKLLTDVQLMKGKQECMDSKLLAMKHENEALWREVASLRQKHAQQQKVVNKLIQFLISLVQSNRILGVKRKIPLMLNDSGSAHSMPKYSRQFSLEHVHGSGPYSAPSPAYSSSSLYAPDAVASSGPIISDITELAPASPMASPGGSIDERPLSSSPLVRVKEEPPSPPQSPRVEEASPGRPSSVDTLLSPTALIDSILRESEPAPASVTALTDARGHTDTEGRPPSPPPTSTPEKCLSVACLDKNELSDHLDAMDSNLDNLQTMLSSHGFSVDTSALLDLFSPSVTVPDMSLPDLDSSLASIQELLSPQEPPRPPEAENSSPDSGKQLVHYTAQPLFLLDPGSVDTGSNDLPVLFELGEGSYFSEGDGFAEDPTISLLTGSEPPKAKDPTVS

What was measured:
HSF1 = HSF1 (UniProt Q00613); assay: DAPPL (digital affinity profiling via proximity ligation, sequencing); settings: 10 mM Tris-HCl pH 7.5, 50 mM NaCl, 1 mM DTT, 4% glycerol, room temperature, 30 min; GST-TFs on glutathione beads, 16-mer random dsDNA library, 0.1% …; high values mean tight binding; double strand, one strand shown; scale: fold enrichment (6-mer frequency, TF over GST control)
ELF2 = biological target: T1, ELF2 (UniProt Q15723); assay: as above; settings: 10 mM Tris-HCl pH 7.5, 50 mM NaCl, 1 mM DTT, 4% glycerol, room temperature, 30 min; GST-TFs on glutathione beads, 16-mer random dsDNA library, 0.1% …; high values mean tight binding; double strand, one strand shown; scale: fold enrichment (6-mer frequency, TF over GST control)
T1 sequence: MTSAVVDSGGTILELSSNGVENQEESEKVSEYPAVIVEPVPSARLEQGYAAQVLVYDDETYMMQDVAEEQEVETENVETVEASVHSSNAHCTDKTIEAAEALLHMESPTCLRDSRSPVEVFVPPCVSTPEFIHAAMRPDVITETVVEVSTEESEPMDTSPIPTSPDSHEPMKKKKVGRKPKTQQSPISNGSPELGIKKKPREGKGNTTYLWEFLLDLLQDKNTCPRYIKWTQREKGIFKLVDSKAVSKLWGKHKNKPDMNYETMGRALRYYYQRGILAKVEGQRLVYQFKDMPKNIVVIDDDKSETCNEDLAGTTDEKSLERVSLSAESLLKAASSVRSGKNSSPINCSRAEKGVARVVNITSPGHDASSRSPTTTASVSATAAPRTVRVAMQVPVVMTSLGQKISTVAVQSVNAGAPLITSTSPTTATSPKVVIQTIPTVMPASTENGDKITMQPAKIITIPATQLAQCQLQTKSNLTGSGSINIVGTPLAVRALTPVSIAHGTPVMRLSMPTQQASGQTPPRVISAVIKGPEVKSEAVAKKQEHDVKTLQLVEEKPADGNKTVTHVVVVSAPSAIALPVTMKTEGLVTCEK

Sequence: GCCACT
- binding signal (HSF1): 0.924
- binding signal (ELF2): 1.21

Sequence: GTACCT
- binding signal (HSF1): 0.985
- binding signal (ELF2): 1.17

Sequence: ACAACA
- binding signal (HSF1): 0.976
- binding signal (ELF2): 1.25

Sequence: ATCGCA
- binding signal (HSF1): 1.03
- binding signal (ELF2): 0.985

Sequence: TTGCAG
- binding signal (HSF1): 0.967
- binding signal (ELF2): 1.06

Sequence: CTAGTG
- binding signal (HSF1): 0.969
- binding signal (ELF2): 0.846

Sequence: GCTCGA
- binding signal (HSF1): 1.74
- binding signal (ELF2): 1.08

Sequence: CTAAGG
- binding signal (HSF1): 0.961
- binding signal (ELF2): 0.856

Sequence: TGCGCC
- binding signal (HSF1): 0.969
- binding signal (ELF2): 1.08

Sequence: GAAGCG
- binding signal (HSF1): 0.932
- binding signal (ELF2): 1.65

Sequence: GAAAGC
- binding signal (HSF1): 0.928
- binding signal (ELF2): 0.877

Sequence: GTATTG
- binding signal (HSF1): 0.844
- binding signal (ELF2): 0.968

Sequence: TTCAAC
- binding signal (HSF1): 1.14
- binding signal (ELF2): 1.26

Sequence: TCTCAG
- binding signal (HSF1): 1.4
- binding signal (ELF2): 1.35

Sequence: GTATCA
- binding signal (HSF1): 0.849
- binding signal (ELF2): 1.05

Sequence: GATGTA
- binding signal (HSF1): 1.01
- binding signal (ELF2): 1.35

Sequence: CACTAC
- binding signal (HSF1): 0.963
- binding signal (ELF2): 1.32

Sequence: TCCGGT
- binding signal (HSF1): 1.09
- binding signal (ELF2): 4.89

Sequence: GCAATA
- binding signal (HSF1): 0.907
- binding signal (ELF2): 1.04

Sequence: CGCTGG
- binding signal (HSF1): 0.907
- binding signal (ELF2): 0.943

Sequence: ATAAGG
- binding signal (HSF1): 0.972
- binding signal (ELF2): 1.09

Sequence: TAGTGG
- binding signal (HSF1): 1.33
- binding signal (ELF2): 1.12

Sequence: TCGTCC
- binding signal (HSF1): 0.885
- binding signal (ELF2): 0.965

Sequence: GCGCCC
- binding signal (HSF1): 0.867
- binding signal (ELF2): 1.08

Sequence: TCGTCA
- binding signal (HSF1): 0.908
- binding signal (ELF2): 0.967

Sequence: ACTTCT
- binding signal (HSF1): 2.1
- binding signal (ELF2): 1.51

Sequence: CGGTAT
- binding signal (HSF1): 0.806
- binding signal (ELF2): 1.17

Sequence: GCAACA
- binding signal (HSF1): 0.76
- binding signal (ELF2): 0.973

Sequence: GGTTAT
- binding signal (HSF1): 0.927
- binding signal (ELF2): 1.06

Sequence: CTTATA
- binding signal (HSF1): 1.65
- binding signal (ELF2): 1.33

Sequence: CAACCT
- binding signal (HSF1): 0.952
- binding signal (ELF2): 1.06

Sequence: TTGGGA
- binding signal (HSF1): 0.989
- binding signal (ELF2): 0.893

Sequence: TTACAT
- binding signal (HSF1): 1.45
- binding signal (ELF2): 1.35

Sequence: AGGTGT
- binding signal (HSF1): 0.717
- binding signal (ELF2): 0.782

Sequence: GTTGAA
- binding signal (HSF1): 0.711
- binding signal (ELF2): 0.794

Sequence: TTGAAG
- binding signal (HSF1): 0.987
- binding signal (ELF2): 0.892

Sequence: CATGAT
- binding signal (HSF1): 1.1
- binding signal (ELF2): 1.04

Sequence: CAGCAT
- binding signal (HSF1): 0.977
- binding signal (ELF2): 0.957

Sequence: TTGCAA
- binding signal (HSF1): 1.07
- binding signal (ELF2): 1.14

Sequence: GGTACA
- binding signal (HSF1): 0.862
- binding signal (ELF2): 1.02

Sequence: ACTATA
- binding signal (HSF1): 1.26
- binding signal (ELF2): 1.27

Sequence: TTCCGG
- binding signal (HSF1): 1.93
- binding signal (ELF2): 9.16

Sequence: CAGACT
- binding signal (HSF1): 1.06
- binding signal (ELF2): 0.993

Sequence: GCGACA
- binding signal (HSF1): 0.751
- binding signal (ELF2): 0.942

Sequence: ATGAGG
- binding signal (HSF1): 0.756
- binding signal (ELF2): 0.966

Sequence: GCCATT
- binding signal (HSF1): 0.76
- binding signal (ELF2): 0.95

Sequence: ATGCCG
- binding signal (HSF1): 0.931
- binding signal (ELF2): 1.12

Sequence: CCACGA
- binding signal (HSF1): 1.12
- binding signal (ELF2): 1.08

Sequence: CAATGG
- binding signal (HSF1): 0.806
- binding signal (ELF2): 0.904

Sequence: ATATAT
- binding signal (HSF1): 1.31
- binding signal (ELF2): 1.44

Sequence: ACGACC
- binding signal (HSF1): 0.951
- binding signal (ELF2): 1.16

Sequence: ACTGCA
- binding signal (HSF1): 0.874
- binding signal (ELF2): 1.1

Sequence: ACACAA
- binding signal (HSF1): 0.999
- binding signal (ELF2): 1.14

Sequence: TGCGAA
- binding signal (HSF1): 1.21
- binding signal (ELF2): 1.14

Sequence: CCCCCT
- binding signal (HSF1): 1.02
- binding signal (ELF2): 1.24

Sequence: CGCACT
- binding signal (HSF1): 0.972
- binding signal (ELF2): 1.32

Sequence: CTCATC
- binding signal (HSF1): 1.27
- binding signal (ELF2): 1.27

Sequence: ATGTAG
- binding signal (HSF1): 0.909
- binding signal (ELF2): 1.02

Sequence: GTCCGG
- binding signal (HSF1): 0.521
- binding signal (ELF2): 1.1

Sequence: TCTCTC
- binding signal (HSF1): 1.59
- binding signal (ELF2): 1.21

Sequence: AGTTTT
- binding signal (HSF1): 0.984
- binding signal (ELF2): 1.02

Sequence: ACGATA
- binding signal (HSF1): 1.17
- binding signal (ELF2): 1.16

Sequence: GTTATG
- binding signal (HSF1): 0.881
- binding signal (ELF2): 1.06

Sequence: ACCGTT
- binding signal (HSF1): 0.876
- binding signal (ELF2): 0.949

Sequence: GACTGC
- binding signal (HSF1): 0.779
- binding signal (ELF2): 0.953

Sequence: AAGCCG
- binding signal (HSF1): 0.991
- binding signal (ELF2): 0.911

Sequence: ACAACC
- binding signal (HSF1): 0.937
- binding signal (ELF2): 1.23

Sequence: GTGCCC
- binding signal (HSF1): 0.697
- binding signal (ELF2): 0.941

Sequence: CTAACT
- binding signal (HSF1): 1.19
- binding signal (ELF2): 1.26

Sequence: TTACTT
- binding signal (HSF1): 1.41
- binding signal (ELF2): 1.73

Sequence: TCTTCC
- binding signal (HSF1): 1.69
- binding signal (ELF2): 4.11

Sequence: AGCAAC
- binding signal (HSF1): 0.984
- binding signal (ELF2): 1.06

Sequence: GTCATT
- binding signal (HSF1): 0.889
- binding signal (ELF2): 0.925

Sequence: ATATCT
- binding signal (HSF1): 1.26
- binding signal (ELF2): 1.2

Sequence: CAAACC
- binding signal (HSF1): 0.886
- binding signal (ELF2): 1.13

Sequence: GCGAAA
- binding signal (HSF1): 1.26
- binding signal (ELF2): 0.947

Sequence: AGGTAA
- binding signal (HSF1): 0.989
- binding signal (ELF2): 0.942

Sequence: GCTAAC
- binding signal (HSF1): 0.913
- binding signal (ELF2): 0.998

Sequence: CGCACC
- binding signal (HSF1): 0.775
- binding signal (ELF2): 0.946
